Like-named read-outs stand apart in the source and are kept apart here. These are yes or no findings as the source states them, for the method shown. Binding seen in cells or lysates may run through a third protein. Some binding calls cover weakened binding; strength is not graded here. For some assays here: Where a sequence is shown, tags or fusion partners need not be part of it.
Tests used:
[1] = biological target: Myc-tagged NLRP3 full length (F) (UniProt Q96P20); experiment: co-IP; HEK293T cells co-transfected with tagged constructs, lysed 24 h later; IP with anti-Myc (NLRP3 constructs) or anti-GFP (TXNIP constructs) antibody, Western blot for HA and the bait's tag
[2] = biological target: T1, GFP-tagged TXNIP full length (F) (UniProt Q9H3M7); experiment: as above
T1 sequence: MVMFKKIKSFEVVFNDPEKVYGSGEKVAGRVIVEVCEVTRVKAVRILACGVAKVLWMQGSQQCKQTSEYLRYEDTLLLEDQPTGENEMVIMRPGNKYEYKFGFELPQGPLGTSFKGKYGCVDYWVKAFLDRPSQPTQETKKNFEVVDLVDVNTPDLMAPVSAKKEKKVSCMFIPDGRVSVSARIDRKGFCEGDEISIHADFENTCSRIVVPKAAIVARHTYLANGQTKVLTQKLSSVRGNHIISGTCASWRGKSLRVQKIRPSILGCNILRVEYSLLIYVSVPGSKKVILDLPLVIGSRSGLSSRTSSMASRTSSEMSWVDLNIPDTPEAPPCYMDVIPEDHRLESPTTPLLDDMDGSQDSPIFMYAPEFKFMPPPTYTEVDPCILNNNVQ

Chains of the proteins cited; added tags and fusions are not shown.
UniProt Q96P20: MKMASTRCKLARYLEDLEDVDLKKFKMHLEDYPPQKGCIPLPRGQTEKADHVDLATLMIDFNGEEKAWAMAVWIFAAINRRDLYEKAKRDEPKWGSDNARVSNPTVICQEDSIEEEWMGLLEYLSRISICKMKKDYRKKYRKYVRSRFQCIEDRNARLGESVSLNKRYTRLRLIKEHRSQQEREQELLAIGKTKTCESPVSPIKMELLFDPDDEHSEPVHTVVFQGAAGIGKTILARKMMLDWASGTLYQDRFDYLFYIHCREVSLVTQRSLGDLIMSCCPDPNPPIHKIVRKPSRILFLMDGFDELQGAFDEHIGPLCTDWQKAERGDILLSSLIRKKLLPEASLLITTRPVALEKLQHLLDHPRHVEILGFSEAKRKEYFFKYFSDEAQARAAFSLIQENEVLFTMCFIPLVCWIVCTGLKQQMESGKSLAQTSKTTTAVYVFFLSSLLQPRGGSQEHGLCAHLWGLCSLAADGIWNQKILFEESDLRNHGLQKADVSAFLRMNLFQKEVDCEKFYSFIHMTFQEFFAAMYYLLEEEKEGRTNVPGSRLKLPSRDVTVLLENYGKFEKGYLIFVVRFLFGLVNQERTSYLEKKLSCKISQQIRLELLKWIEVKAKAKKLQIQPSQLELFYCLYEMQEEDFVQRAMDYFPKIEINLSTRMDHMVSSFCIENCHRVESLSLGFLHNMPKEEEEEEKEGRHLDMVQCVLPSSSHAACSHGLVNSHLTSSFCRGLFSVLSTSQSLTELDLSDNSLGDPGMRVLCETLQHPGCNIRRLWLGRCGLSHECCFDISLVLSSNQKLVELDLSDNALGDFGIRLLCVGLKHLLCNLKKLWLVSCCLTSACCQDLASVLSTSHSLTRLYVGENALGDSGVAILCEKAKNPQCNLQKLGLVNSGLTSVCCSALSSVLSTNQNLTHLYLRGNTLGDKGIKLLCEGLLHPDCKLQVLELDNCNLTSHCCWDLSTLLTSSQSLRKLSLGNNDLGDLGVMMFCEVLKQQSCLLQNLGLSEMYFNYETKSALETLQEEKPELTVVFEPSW
UniProt P11103: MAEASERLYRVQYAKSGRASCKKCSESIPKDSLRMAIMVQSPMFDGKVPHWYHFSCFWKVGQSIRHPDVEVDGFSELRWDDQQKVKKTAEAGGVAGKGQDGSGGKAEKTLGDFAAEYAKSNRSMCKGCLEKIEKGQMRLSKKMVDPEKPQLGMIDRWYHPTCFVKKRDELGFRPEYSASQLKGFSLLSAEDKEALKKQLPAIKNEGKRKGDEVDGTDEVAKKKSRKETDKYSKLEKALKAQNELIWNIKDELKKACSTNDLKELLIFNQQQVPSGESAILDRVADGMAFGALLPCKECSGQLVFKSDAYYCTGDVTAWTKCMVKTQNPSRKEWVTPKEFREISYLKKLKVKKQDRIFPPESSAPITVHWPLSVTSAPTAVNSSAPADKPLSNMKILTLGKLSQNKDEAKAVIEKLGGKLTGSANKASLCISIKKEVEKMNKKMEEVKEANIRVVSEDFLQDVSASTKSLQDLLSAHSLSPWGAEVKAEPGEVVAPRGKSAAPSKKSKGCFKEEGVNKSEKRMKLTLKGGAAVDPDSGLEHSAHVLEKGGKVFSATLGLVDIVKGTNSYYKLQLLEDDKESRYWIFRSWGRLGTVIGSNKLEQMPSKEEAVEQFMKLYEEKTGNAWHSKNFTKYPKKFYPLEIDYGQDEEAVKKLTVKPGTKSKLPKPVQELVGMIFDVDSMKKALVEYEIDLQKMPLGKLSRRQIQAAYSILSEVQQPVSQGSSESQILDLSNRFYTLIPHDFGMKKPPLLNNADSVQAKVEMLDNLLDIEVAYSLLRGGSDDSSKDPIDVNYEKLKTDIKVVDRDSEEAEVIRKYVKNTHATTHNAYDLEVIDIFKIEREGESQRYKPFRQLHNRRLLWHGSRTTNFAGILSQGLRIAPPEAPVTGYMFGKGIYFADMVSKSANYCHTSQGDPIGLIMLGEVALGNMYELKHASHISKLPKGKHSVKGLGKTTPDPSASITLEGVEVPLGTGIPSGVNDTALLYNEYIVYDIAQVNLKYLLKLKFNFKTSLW
UniProt P09874: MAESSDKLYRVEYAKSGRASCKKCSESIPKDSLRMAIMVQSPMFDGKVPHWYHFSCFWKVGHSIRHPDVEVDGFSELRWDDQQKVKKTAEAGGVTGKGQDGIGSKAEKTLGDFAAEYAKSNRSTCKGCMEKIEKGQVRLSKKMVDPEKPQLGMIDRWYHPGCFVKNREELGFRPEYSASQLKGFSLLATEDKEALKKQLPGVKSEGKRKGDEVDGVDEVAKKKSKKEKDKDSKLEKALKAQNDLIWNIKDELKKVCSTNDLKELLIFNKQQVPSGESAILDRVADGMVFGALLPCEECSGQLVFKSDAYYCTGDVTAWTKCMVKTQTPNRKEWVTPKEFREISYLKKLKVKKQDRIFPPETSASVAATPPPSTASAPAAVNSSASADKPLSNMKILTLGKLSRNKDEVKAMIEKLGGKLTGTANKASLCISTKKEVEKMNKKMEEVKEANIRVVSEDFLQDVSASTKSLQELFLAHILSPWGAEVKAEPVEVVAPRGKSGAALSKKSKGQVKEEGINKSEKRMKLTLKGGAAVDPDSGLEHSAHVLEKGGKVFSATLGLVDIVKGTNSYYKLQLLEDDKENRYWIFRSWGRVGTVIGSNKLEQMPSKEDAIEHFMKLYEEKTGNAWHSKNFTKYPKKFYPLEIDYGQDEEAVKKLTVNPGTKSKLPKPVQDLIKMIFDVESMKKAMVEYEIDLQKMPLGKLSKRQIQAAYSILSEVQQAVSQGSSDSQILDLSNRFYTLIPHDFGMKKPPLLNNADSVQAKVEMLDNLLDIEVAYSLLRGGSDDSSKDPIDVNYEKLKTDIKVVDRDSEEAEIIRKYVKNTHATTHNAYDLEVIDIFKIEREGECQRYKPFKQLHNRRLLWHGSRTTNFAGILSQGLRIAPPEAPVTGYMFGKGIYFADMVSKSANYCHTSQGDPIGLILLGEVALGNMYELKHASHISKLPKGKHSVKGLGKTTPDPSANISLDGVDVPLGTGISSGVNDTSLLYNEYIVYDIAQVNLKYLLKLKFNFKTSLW
UniProt Q8R4B8: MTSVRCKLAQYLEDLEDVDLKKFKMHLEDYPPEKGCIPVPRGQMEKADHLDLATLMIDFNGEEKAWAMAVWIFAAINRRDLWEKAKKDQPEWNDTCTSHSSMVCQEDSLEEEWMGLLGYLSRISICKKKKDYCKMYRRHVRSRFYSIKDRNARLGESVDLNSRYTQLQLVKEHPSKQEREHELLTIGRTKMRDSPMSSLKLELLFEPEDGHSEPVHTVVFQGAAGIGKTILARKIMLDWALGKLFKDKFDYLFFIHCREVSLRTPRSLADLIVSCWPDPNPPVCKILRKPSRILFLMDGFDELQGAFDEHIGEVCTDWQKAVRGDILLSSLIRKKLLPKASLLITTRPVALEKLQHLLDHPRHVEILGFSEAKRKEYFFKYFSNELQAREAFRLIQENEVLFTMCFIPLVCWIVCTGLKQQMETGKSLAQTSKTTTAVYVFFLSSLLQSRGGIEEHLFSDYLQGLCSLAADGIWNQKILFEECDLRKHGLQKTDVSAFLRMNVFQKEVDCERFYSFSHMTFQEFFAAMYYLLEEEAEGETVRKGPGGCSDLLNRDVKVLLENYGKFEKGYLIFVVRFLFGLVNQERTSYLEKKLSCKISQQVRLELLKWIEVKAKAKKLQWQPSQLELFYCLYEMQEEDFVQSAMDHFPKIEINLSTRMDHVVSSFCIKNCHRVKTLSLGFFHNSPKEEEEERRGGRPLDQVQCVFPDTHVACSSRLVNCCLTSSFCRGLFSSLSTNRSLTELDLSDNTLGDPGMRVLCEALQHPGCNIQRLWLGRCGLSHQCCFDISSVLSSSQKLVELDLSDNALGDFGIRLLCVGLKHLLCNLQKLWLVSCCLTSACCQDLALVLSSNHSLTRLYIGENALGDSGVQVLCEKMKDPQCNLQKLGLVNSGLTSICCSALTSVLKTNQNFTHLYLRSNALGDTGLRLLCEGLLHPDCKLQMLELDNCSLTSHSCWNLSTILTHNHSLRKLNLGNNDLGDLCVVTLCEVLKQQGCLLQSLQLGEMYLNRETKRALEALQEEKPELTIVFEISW

[3] = biological target: Poly(ADP-ribose) polymerase-1 (PARP-1) (mouse (endogenous in BMDM)) (UniProt P11103); experiment: co-IP; endogenous proteins in lysates of WT or Parp-1-/- BMDM primed with LPS (1 ug/ml, 6 h) and stimulated with ATP (5 mM), some pretreated with DPQ (25 uM) or NAC (1 mM); RIPA buffer 150 mM NaCl, IP with caspase-1, PARP-1 or TXNIP antibody and protein A-agarose, washes with 300 and 150 mM NaCl; Western blot
[4] = biological target: T2, pro-caspase-1 (mouse (endogenous in BMDM)) (UniProt P29452); experiment: as above
T2 sequence: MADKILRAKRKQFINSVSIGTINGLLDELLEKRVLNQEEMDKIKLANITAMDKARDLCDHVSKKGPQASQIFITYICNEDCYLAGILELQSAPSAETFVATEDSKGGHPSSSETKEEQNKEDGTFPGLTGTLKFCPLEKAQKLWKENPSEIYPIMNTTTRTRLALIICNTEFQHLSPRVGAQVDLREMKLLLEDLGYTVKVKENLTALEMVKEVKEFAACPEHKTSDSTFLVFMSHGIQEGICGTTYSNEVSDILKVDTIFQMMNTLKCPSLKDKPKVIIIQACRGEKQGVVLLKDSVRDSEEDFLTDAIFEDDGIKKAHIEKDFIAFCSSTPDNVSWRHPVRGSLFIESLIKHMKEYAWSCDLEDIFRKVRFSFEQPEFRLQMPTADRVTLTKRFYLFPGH

[5] = biological target: Poly(ADP-ribose) polymerase-1 (PARP-1) (mouse (endogenous in BMDM)) (UniProt P11103); experiment: as above; remark: listed apart in the source

HA-tagged PARP-1 full length (F) (from UniProt P09874 1-1014)
binding [1]: binds
binding [2]: binds

NLRP3 (NACHT domain-, leucine-rich repeat-, and pyrin domain-containing protein 3) (from UniProt Q8R4B8 1-1033)
binding [3]: binds
binding [4]: binds

B1: thioredoxin-interacting protein (TXNIP) (protein, UniProt Q8BG60 1-397)
chain: MVMFKKIKSFEVVFNDPEKVYGSGEKVAGRVIVEVCEVTRVKAVRILACGVAKVLWMQGSQQCKQTLDYLRYEDTLLLEEQPTAGENEMVIMRPGNKYEYKFGFELPQGPLGTSFKGKYGCVDYWVKAFLDRPSQPTQEAKKNFEVMDLVDVNTPDLMAPVSAKKEKKVSCMFIPDGRVSVSARIDRKGFCEGDDISIHADFENTCSRIVVPKAAIVARHTYLANGQTKVFTQKLSSVRGNHIISGTCASWRGKSLRVQKIRPSILGCNILKVEYSLLIYVSVPGSKKVILDLPLVIGSRSGLSSRTSSMASRTSSEMSWIDLNIPDTPEAPPCYMDIIPEDHRLESPTTPLLDDVDDSQDSPIFMYAPEFQFMPPPTYTEVDPCVLNNNNNNNNVQ
binding [5]: binds

Reference: PMC8801414
